According to patent EP4000606A1, “COMPOUNDS FOR CORONAVIRUS INFECTION TREATMENT AND/OR PREVENTION” (priority 2020, dated 2022):
pIC50: −log10 of the molar value.

System: SARS-CoV-2
Experiment: microbe, parasite or virus in culture
Assay type: cell-based
Conditions: Severe acute respiratory syndrome coronavirus 2, 120 h

## CCN(CC)CCOc1ccc(C(=C(Cl)c2ccccc2)c2ccccc2)cc1.O=C(O)CC(O)(CC(=O)O)C(=O)O [compound 82, 2-[4-(2-Chloro-1,2-diphenylvinyl)phenoxy]-N,N-diethylethanamine citrate]
  pIC50: 4.87
